Laboratory results: paper PMC12999171 (eLife, 2026)

Amino acid sequences for entries named in this document (tags omitted). Residues count along the entry.
UniProt A0A1B3D787, 27-341, stated change not applied: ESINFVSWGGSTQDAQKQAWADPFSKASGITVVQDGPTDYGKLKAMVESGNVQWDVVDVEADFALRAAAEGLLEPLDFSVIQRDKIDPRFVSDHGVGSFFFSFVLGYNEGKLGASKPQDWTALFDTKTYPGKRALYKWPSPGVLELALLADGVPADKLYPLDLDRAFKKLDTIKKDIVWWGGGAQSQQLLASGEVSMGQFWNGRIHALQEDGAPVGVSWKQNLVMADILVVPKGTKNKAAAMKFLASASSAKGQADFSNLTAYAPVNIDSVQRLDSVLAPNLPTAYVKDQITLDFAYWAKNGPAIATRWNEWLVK

Legend:
iGABASnFR1 = iGABASnFR1 (Pseudomonas fluorescens, UniProt A0A1B3D787, F126L/N285A); assay: biochemical; assay type: binding
iGABASnFR2n = iGABASnFR2n (Pseudomonas fluorescens, UniProt A0A1B3D787, F126L/F129H/N285A/S124A); assay: biochemical; assay type: binding

N[C@@H](Cc1ccc(O)cc1)C(=O)O [tyrosine]
EC50 (iGABASnFR1): 2.51 mM
EC50 (iGABASnFR2n): 9 mM
